From publication PMC10823479 (Journal of Medicinal Chemistry, 2024)

How the values were obtained:
in vitro = settings: rat, microsomes
[1] = in vivo, im; cited from earlier work

COc1cc2c(cc1OC)C(=O)C(CC1CCN(Cc3ccccc3)CC1)C2 (centres unmarked) [donepezil, reference compound]
remaining at 2 h (in vitro): 75.1%
clearance [1]: 1 mL/min/kg
